Experimental data published in PMC4877593, “Design and Synthesis of Potent in Vitro and in Vivo Anticancer Agents Based on 1-(3′,4′,5′-Trimethoxyphenyl)-2-Aryl-1H-Imidazole” (Scientific Reports, 2016).

How the values were obtained:
[1] = test system: panel of seven human tumor cell lines; assay: Antiproliferative activity across the panel of seven human tumor cell lines; assay type: cell-based
Method: Human T-cell leukemia (CCRF-CEM and Jurkat) and human B-cell leukemia (SEM) cells were grown in RPMI-1640 medium (Gibco, Milano, Italy). Breast adenocarcinoma (MCF7), human cervix carcinoma (HeLa), and human colon adenocarcinoma (HT-29) cells were grown in DMEM medium (Gibco, Milano, Italy), all supplemented with 115 units/mL penicillin G (Gibco, Milano, Italy), 115 μg/mL streptomycin (Invitrogen, Milano, Italy), and 10% fetal bovine serum (Invitrogen, Milano, Italy). Stock solutions (10 mM) of the different compounds were obtained by dissolving them in dimethyl sulfoxide (DMSO). Individual wells of a 96-well tissue culture microtiter plate were inoculated with 100 μL of complete medium containing 8 × 10^3 cells. The plates were incubated at 37 °C in a humidified 5% CO2 incubator for 18 h prior to the experiments. After medium removal, 100 μL of fresh medium containing the test compound at different concentrations was added to each well in triplicate and incubated at 37 °C for 72 h. The percentage of DMSO in the medium never exceeded 0.25%. This was also the maximum DMSO concentration in all cell-based assays described below. […] Different concentrations of the test compounds were added, and viability was determined 72 h later by the MTT test. For cytotoxicity evaluations in resting PBL cultures, non-adherent cells were resuspended (5 × 10^5 cells/mL) and treated for 72 h with the test compounds, as described above.

bovine brain tubulin = assay: Inhibition of tubulin polymerization (turbidimetry); assay type: biochemical
Method: To evaluate the effect of the compounds on tubulin assembly in vitro[22], varying concentrations of compounds were preincubated with 10 μM bovine brain tubulin in glutamate buffer at 30 °C and then cooled to 0 °C. After addition of 0.4 mM GTP (final concentration), the mixtures were transferred to 0 °C cuvettes in a recording spectrophotometer equipped with an electronic temperature controller and warmed to 30 °C. Tubulin assembly was followed turbidimetrically at 350 nm. […] The ability of the test compounds to inhibit colchicine binding to tubulin was measured as described, except that the reaction mixtures contained 1 μM tubulin, 5 μM [^3H]colchicine and 1 or 5 μM test compound.

## COc1cc(-n2ccnc2-c2ccc3ccccc3c2)cc(OC)c1OC [Compound 3c, reference compound]
[1]; from average IC50 values
  less active than 4o (antiproliferative): 12 fold

## COc1cc(-n2ccnc2-c2ccc(C)cc2)cc(OC)c1OC [Compound 4a, 1-(3′,4′,5′-Trimethoxyphenyl)-2-p-tolyl-1H-imidazole]
[1]; six of the seven cancer cell lines (exception HL-60)
  drop in antiproliferative activity relative to 3b: 2–12 fold

## CCOc1ccc(-c2nccn2-c2cc(OC)c(OC)c(OC)c2)cc1 [Compound 4k, 2-(4′-Ethoxyphenyl)-1-(3′,4′,5′-trimethoxyphenyl)-1H-imidazole]
[1]; from average IC50 values
  more active than the 2′-naphthyl derivative 3c (antiproliferative): 2 fold
[1]; seven cell lines
  improvement of antiproliferative activity relative to 3b: 57-933 fold

## CCOc1ccc(-c2nccn2-c2cc(OC)c(OC)c(OC)c2)cc1F [Compound 4n, 2-(3′-Fluoro-4′-ethoxyphenyl)-1-(3′,4′,5′-trimethoxyphenyl)-1H-imidazole]
[1]; from average IC50 values
  more active than the 2′-naphthyl derivative 3c (antiproliferative): 2 fold

## CCOc1ccc(-c2nccn2-c2cc(OC)c(OC)c(OC)c2)cc1Cl [Compound 4o, 2-(3′-Chloro-4′-ethoxyphenyl)-1-(3′,4′,5′-trimethoxyphenyl)-1H-imidazole]
Bovine brain tubulin
  more potent than CA-4 as inhibitor of tubulin assembly: 1.5 fold and 1.5-2 fold

Several values for one entry are separate records, joined by “and”; a condition that tells them apart may be missing. Equal values may be shown once.
